Measurements: patent US8452543B2, “High throughput screening for antimicrobial dosing regimens” (priority 2005, dated 2013)
For at least one compound, name, drawing or mass did not settle the structure.

Legend:
[1] = test system: P. aeruginosa ATCC 27853; test: Time-kill studies and model fit, levofloxacin; type: cell-based, Pseudomonas aeruginosa; conditions: model fit
Experimental: An overnight culture of the isolate was diluted 30-fold with pre-warmed Ca-MHB and incubated further at 35 C until reaching late log phase growth. The bacterial suspension was diluted with Ca-MHB accordingly based on absorbance at 630 nm; 15 mL of the suspension was transferred to 50 mL sterile conical flasks each containing 1 mL of a drug solution at 16·the target concentration. The final concentration of the bacterial suspension in each flask at baseline was approximately 1×10^8 CFU/mL.
The high inoculum was used to simulate the bacterial load in a severe infection, e.g., nosocomial pneumonia. Furthermore, the high inoculum used would allow resistant sub-population(s) to be likely present at baseline. […]
Prior to culturing the bacteria quantitatively, the bacterial samples (0.5 mL) were centrifuged at 10,000 g for 15 min, and reconstituted with sterile normal saline to their original volumes in order to minimize drug carry-over effect. Total bacterial populations were quantified by spiral plating 10 serial dilutions of the samples (50 IL) onto Ca-MHA plates. The media plates were incubated in a humidified incubator (35° C. for 18-24 h, and the bacterial density from each sample was determined by CASBA-4 colony scanner/software (Spiral Biotech, Bethesda, Md.). The reliable limit of detection was 400 CFU/mL. The experiment was repeated once on a separate day. […]

[2] = test system: P. aeruginosa ATCC 27853 and its isogenic OprD− mutant (1000:1); test: Murine pneumonia model; type: in vivo, mice; conditions: repeat susceptibility testing
Experimental: Female Swiss-Webster mice (22-26 g) were used; all mice were cared for in accordance to the highest humane and ethical standards, as approved by the Institutional Animal Care and Use Committee (IACUC). The animals were housed in isolation boxes to decrease the risk of infection from extraneous pathogens. They received food and water ad libitum. The animals were rendered neutropenic by 2 intra-peritoneal injections of cyclophosphamide (Sigma, St. Louis, Mo.) 150 mg/kg on day −4 and 100 mg/kg on day −1 prior to infection; previous studies have shown that this regimen would produce neutropenia for 5 days (13, 16). […]
Each mouse was anesthetized with a single intra-peritoneal dose ([…]) of tribromoethanol (Sigma, St. Louis, Mo.), and was intubated under laryngoscopic guidance. […] The bacterial suspension was diluted to the desired concentration of approximately 10^8 CFU/ml based on absorbance at 630 nm; a mixture of wild-type and its isogenic OprD^− mutant in a 1000:1 ratio was used to mimic a heterogeneous bacterial population. […]
Two hours after infection, 3 mice were sacrificed by CO2 asphyxiation to ascertain the bacterial burden in lung tissues. […] They were then diluted ten-fold serially and quantitatively cultured on Mueller-Hinton agar (MHA) plates (Hardy Diagnostics, Santa Maria, Calif.) and MHA plates supplemented with meropenem at 3× the MIC of the wild-type isolate. […]

C[C@H]1COc2c(N3CCN(C)CC3)c(F)cc3c(=O)c(C(=O)O)cn1c23 [levofloxacin]
Kk = Kb [1]: 13.5 h⁻¹ | MIC of isolates recovered from meropenem-supplemented MHA plates compared to the OprD− mutant [2]: did not reveal a substantial increase in MIC
